Results deposited as PubChem BioAssay AID1224828 (NIAID, 2016)
In all, the deposit lists about 17,000 reagents; below is an unselected part. In the full data, 762 (4.5%) are marked active. 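Active calls include both raised and lowered p65 entry, mostly lowered; wells with fewer than 50 cells lack a z-score.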 Raw values vary from plate to plate and are shown uncorrected. Unmarked entries are inactive. Reagents against one gene are numbered here.

- Screen: 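Find genes required for NF-kappaB p65 moving into the nucleus after LPS in mouse macrophages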 (primary screen)
- Cells: mouse RAW264.7 G9 macrophage reporter cells (GFP-p65, Tnf promoter-mCherry)
- Reagent: siRNA pool against mouse genes, 100 nM
- Timing: 2 days siRNA transfection, then 40 min LPS before fixation
- Challenge: LPS (Salmonella minnesota R595) at 10 ng/ml
- Read-out: 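Microscopy ratio of nuclear to perinuclear-ring GFP-p65 signal, scaled to the plate median; gene score is the average of two replicate robust z-scores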
- Scale: p65 translocation robust z-score: higher = more nuclear NF-kappaB p65 after LPS than the plate median; nuclear/cytoplasmic p65 ratio: higher = more nuclear NF-kappaB p65
- Active means: 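Called active when z exceeds 3.3 or falls under -1.56 (median of Tlr4 controls), giving activity score of at least 50; no calls for control wells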
- Meaning of the calls: active = hit (p65 shift raised or lowered); inactive = no clear change

| Target gene | pool no. | p65 translocation robust z-score | nuclear/cytoplasmic p65 ratio, rep 1 | nuclear/cytoplasmic p65 ratio, rep 2 | low cell count flag |
| --- | --- | --- | --- | --- | --- |
| E230012M21 | 1 | 0.46 | 1.57 | 1.38 | enough cells to score |
| Gm38404 | 1 | 0.1 | 1.56 | 1.83 | enough cells to score |
| Dxo | 1 | – | 1.5 | 1.27 | fewer than 50 cells per well; well left out of scoring |
| Osgepl1 | 1 | – | 1.53 | 0 | fewer than 50 cells per well; well left out of scoring |
| AW551984 | 1 | 0.43 | 1.69 | 1.55 | enough cells to score |
| Hecw1 | 1 | -0.72 | 1.49 | 1.42 | enough cells to score |
| Umodl1 | 1 | -0.7 | 1.43 | 1.49 | enough cells to score |
| Nr1d2 | 1 | -0.5 | 1.36 | 1.37 | enough cells to score |
| Fbxl22 | 1 | 0.29 | 1.55 | 1.52 | enough cells to score |
| Chst11 | 1 | -0.72 | 1.55 | 1.6 | enough cells to score |
| Clec5a | 1 | -0.7 | 1.48 | 1.68 | enough cells to score |
| Zfp763 | 1 | 0.52 | 1.66 | 1.72 | enough cells to score |
| Rab22a | 1 | -0.56 | 1.45 | 1.31 | enough cells to score |
| Rspo4 | 1 | -0.16 | 1.33 | 1.54 | enough cells to score |
| Psme4 | 1 | – | 1.7 | 1.11 | fewer than 50 cells per well; well left out of scoring |
| Slco1a5 | 1 | 2.08 | 1.49 | 1.46 | enough cells to score |
| Kcnj1 | 1 | 1.99 | 1.72 | 1.66 | enough cells to score |
| Sftpa1 | 1 | -0.64 | 1.43 | 1.49 | enough cells to score |
| D830024N08Rik | 1 | -0.89 | 1.46 | 1.4 | enough cells to score |
| Lgr4 | 1 | -0.37 | 1.43 | 1.56 | enough cells to score |
| Qrich1 | 1 | -0.66 | 1.29 | 1.39 | enough cells to score |

Laid out differently: 5 of the entries above.
Target gene | pool no. | p65 translocation robust z-score | nuclear/cytoplasmic p65 ratio, rep 1 | nuclear/cytoplasmic p65 ratio, rep 2 | low cell count flag
Psme4 | 1 | – | 1.7 | 1.11 | fewer than 50 cells per well; well left out of scoring
Slco1a5 | 1 | 2.08 | 1.49 | 1.46 | enough cells to score
Kcnj1 | 1 | 1.99 | 1.72 | 1.66 | enough cells to score
Sftpa1 | 1 | -0.64 | 1.43 | 1.49 | enough cells to score
D830024N08Rik | 1 | -0.89 | 1.46 | 1.4 | enough cells to score

Next reagents follow.
| Target gene | pool no. | p65 translocation robust z-score | nuclear/cytoplasmic p65 ratio, rep 1 | nuclear/cytoplasmic p65 ratio, rep 2 | low cell count flag |
| --- | --- | --- | --- | --- | --- |
| Clcn7 | 1 | 0.5 | 1.4 | 1.44 | enough cells to score |
| Zfp697 | 1 | 0.47 | 1.65 | 1.79 | enough cells to score |
| Prdm5 | 1 | 0.63 | 1.66 | 1.42 | enough cells to score |
| Lrrc75b | 1 | 0.47 | 1.63 | 1.81 | enough cells to score |
| Atp8a1 | 1 | 0.35 | 1.82 | 1.52 | enough cells to score |
| Foxred1 | 1 | -0.62 | 1.42 | 1.74 | enough cells to score |
| Gnpat | 1 | 0.16 | 1.32 | 1.41 | enough cells to score |
| Ctsd | 1 | 0.07 | 1.34 | 1.37 | enough cells to score |
| Hemk2 | 1 | 0.63 | 1.44 | 1.55 | enough cells to score |
| Ppp4r2 | 1 | 0.12 | 1.5 | 1.44 | enough cells to score |
| Pja1 | 1 | -0.02 | 1.44 | 1.16 | enough cells to score |
| Usp53 | 1 | 0.44 | 1.55 | 1.25 | enough cells to score |
| Usp53 | 2 | -0.15 | 1.46 | 1.4 | enough cells to score |
| Ddx54 | 1 | -0.36 | 1.45 | 1.56 | enough cells to score |
| Itgb2 | 1 | 0.11 | 1.53 | 1.36 | enough cells to score |
| Sult1a1 | 1 | -0.71 | 1.47 | 1.44 | enough cells to score |
| Washc5 | 1 | -0.12 | 1.47 | 1.33 | enough cells to score |
| V1rd19 | 1 | 0.71 | 1.47 | 1.31 | enough cells to score |
| Slc25a27 | 1 | -0.44 | 1.51 | 1.41 | enough cells to score |
